Results are given in words; binding and its absence hold for the method and conditions named. Binding seen in cells or lysates may run through a third protein.
Molecular target: HIS epitope-tagged full-length NOTCH3 (human) (UniProt Q9UM47)
Assay: co-IP; HA and HIS epitope-tagged constructs cotransfected into 293T cells; immunoprecipitation, Western blot

Amino acid sequences for entries named in this document (tags omitted). Residues count along the entry.
UniProt Q9UM47, residues 40-2321: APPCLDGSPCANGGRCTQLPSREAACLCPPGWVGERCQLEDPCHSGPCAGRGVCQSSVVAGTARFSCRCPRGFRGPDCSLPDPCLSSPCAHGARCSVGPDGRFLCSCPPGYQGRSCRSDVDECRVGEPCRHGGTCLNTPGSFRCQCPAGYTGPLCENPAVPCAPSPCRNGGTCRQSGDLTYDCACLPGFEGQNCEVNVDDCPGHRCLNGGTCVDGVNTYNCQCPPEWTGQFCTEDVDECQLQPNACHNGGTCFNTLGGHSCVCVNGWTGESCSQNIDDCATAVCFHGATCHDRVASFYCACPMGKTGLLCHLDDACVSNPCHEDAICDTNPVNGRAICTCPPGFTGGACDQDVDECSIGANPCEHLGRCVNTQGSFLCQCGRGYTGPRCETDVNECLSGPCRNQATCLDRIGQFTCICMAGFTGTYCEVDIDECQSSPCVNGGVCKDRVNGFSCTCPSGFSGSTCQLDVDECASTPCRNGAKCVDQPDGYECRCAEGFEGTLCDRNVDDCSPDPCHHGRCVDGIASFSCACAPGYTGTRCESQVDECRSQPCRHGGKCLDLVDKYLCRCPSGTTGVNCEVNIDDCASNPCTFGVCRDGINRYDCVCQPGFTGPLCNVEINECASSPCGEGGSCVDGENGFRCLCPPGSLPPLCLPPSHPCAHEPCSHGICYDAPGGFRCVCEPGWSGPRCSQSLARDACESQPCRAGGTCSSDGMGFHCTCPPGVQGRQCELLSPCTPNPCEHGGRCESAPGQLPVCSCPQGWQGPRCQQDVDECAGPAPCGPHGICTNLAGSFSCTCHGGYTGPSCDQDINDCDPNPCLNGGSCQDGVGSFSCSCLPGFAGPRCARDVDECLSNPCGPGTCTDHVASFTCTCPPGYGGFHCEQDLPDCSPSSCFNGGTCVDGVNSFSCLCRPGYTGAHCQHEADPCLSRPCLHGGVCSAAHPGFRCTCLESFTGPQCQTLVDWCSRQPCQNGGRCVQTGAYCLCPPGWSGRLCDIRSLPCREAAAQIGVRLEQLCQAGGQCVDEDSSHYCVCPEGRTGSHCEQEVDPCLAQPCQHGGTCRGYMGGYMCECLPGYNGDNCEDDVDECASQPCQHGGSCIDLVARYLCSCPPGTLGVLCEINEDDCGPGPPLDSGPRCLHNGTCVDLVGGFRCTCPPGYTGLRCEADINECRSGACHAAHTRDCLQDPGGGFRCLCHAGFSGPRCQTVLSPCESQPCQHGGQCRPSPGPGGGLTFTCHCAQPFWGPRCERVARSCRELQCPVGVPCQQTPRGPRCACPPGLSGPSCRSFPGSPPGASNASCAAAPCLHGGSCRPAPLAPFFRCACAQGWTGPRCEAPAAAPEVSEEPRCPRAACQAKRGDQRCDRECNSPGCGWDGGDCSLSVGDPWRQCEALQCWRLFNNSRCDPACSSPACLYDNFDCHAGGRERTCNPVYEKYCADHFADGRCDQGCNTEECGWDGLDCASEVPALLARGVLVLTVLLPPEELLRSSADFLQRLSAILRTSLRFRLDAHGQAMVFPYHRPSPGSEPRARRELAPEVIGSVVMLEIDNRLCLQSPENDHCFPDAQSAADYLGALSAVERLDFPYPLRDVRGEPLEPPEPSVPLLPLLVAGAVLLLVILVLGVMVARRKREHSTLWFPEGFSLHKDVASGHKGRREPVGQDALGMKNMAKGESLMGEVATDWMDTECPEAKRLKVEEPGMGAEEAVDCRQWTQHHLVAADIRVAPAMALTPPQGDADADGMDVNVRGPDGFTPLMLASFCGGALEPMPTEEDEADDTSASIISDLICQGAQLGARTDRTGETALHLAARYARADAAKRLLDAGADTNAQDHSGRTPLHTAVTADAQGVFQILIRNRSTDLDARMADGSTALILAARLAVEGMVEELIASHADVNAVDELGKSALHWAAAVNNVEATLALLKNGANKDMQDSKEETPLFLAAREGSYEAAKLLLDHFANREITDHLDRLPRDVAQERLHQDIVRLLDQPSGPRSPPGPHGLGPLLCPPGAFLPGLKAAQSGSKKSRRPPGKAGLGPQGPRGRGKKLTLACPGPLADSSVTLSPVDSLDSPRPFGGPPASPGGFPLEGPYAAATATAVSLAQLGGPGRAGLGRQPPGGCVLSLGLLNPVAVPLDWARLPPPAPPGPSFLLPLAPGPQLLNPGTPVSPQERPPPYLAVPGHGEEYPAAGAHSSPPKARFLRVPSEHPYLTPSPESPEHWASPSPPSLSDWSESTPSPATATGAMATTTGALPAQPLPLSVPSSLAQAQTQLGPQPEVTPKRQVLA

“HA epitope-tagged full-length NOTCH3 lacking the dimerization motif (from UniProt Q9UM47) (receptor)” was tested, and the binding was “no binding”.

Reference: publication PMC13193388, “Dimerization‐dependent NOTCH receptor transactivation unveils a class of highly selective NOTCH signalling inhibitors” (The Febs Journal, 2025)
